Reference: paper PMC3244446, “Soluble CD44 Interacts with Intermediate Filament Protein Vimentin on Endothelial Cell Surface” (PLoS ONE, 2011)
No constants are given. Whether binding was seen depends on the method and setting. Binding seen in cells or lysates may run through a third protein. A yes stands for co-enrichment or nearness to the bait. Other partners may have been found.

Chains of the proteins cited; added tags and fusions are not shown. Lines headed by an entry give the natural chain unless they say otherwise; changes in a name come on top. A line that says so, or that is headed by a name, gives the form on record, which may keep a tag or linker.
GST-tagged CD44HABD^R41AR78SY79S (CD443MUT), non-HA-binding triple mutant (P16070, form named): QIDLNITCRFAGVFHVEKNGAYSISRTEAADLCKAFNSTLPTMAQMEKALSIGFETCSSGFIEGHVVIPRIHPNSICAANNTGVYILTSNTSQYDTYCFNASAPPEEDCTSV
UniProt P08670: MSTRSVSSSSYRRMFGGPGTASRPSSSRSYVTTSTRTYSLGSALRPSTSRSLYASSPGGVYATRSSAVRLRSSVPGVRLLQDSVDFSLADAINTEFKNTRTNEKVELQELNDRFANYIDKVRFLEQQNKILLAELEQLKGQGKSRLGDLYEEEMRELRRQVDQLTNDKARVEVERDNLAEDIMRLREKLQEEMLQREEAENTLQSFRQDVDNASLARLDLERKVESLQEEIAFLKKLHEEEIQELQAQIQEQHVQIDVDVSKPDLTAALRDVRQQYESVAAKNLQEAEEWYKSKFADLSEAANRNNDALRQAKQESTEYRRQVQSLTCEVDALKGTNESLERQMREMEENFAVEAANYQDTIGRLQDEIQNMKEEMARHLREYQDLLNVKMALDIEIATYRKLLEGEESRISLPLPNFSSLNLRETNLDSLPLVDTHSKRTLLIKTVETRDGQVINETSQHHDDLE

Target: GST-tagged CD44HABD^R41AR78SY79S (CD443MUT), non-HA-binding triple mutant (human) (UniProt P16070)
Experiment: affinity purification with mass spectrometry; GST-CD443MUT on glutathione beads, CHAPS-solubilised HUVEC lysate, overnight 4°C; elution with reduced glutathione, SDS-PAGE, silver staining, band identified by MALDI-TOF MS; only the target purified

With “endogenous vimentin of HUVEC (from UniProt P08670 1-466)” the binding was “binds”.
